Laboratory results taken from PMC5348329.
Results are given in words; binding and its absence hold for the method and conditions named. Binding seen in cells or lysates may run through a third protein. Some binding calls cover weakened binding; strength is not graded here. For some of these results: Tags and fused reporters may be left off the sequences shown. Each block holds one molecule with its values, some of them ahead of it.

By UniProt entry, the sequences of proteins in these tests, tags left out.
UniProt P35222: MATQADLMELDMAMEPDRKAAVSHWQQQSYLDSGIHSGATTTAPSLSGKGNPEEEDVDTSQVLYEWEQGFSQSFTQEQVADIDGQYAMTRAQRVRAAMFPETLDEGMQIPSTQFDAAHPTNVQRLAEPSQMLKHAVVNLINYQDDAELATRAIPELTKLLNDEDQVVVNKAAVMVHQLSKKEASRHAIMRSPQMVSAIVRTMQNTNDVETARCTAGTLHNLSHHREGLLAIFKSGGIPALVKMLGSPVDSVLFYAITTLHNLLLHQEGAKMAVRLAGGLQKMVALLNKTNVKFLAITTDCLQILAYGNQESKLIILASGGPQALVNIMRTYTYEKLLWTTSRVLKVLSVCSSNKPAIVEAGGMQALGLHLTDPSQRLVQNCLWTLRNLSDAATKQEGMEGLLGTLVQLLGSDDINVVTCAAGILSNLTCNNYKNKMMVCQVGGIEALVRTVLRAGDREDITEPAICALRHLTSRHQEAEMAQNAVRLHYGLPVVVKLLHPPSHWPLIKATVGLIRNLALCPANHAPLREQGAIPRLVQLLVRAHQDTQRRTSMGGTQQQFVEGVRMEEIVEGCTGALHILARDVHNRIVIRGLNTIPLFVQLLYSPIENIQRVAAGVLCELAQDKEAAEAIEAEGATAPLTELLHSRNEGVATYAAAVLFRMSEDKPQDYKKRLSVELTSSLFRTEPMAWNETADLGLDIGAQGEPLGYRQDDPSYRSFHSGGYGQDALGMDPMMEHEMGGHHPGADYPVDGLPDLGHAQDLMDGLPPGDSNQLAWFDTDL

Legend:
GST-fused CARF = biological target: T1, GST-fused CARF (UniProt Q9NXV6); assay: pull-down; GST-CARF fusion protein purified and incubated with 7404 cell lysate; only the target purified
T1 sequence: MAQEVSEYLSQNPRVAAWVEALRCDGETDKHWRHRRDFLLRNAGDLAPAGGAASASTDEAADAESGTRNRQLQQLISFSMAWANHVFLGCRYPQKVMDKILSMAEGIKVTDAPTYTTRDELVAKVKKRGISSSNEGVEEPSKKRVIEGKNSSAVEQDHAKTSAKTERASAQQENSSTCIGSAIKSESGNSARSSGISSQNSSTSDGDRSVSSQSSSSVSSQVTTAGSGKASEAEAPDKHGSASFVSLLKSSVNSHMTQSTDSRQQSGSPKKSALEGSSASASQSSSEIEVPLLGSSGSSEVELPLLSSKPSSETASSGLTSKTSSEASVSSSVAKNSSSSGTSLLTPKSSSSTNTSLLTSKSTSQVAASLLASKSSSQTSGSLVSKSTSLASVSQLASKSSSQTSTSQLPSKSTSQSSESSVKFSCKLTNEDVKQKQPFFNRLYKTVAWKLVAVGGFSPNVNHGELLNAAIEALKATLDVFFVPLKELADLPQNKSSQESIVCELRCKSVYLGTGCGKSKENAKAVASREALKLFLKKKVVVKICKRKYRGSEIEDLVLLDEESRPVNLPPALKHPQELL

[1] = biological target: beta-catenin (as in the co-precipitations with ICAT and TCF4, Figure 6E-F) (UniProt P35222); assay: co-IP; interaction of beta-catenin with ICAT or TCF4, with and without over-expression of CARF; cells and precipitated partner not stated
Flag-beta-catenin = Flag-beta-catenin (UniProt P35222); assay: co-IP; immunoprecipitation from 7404 cells with exogenously expressed Flag-beta-catenin and myc-CARF; lysis in Tris-buffered saline pH 7.4, 150 mM NaCl, 1% NP-40; Protein A-Sepharose
[2] = biological target: beta-catenin (endogenously expressed) (human (endogenous in 7404 and Hep3B)) (UniProt P35222); assay: co-IP; immunoprecipitation of endogenously expressed proteins in 7404 and Hep3B cells; lysis in Tris-buffered saline pH 7.4, 150 mM NaCl, 1% NP-40; Protein A-Sepharose

binding (GST-fused CARF): binds
Molecule: beta-catenin (endogenously expressed) (from UniProt P35222 1-781)

binding [1]: binds
binding (Flag-beta-catenin): binds
B1: myc-tagged CARF (collaborator of ARF) (protein, UniProt Q9NXV6 1-580)
chain: MAQEVSEYLSQNPRVAAWVEALRCDGETDKHWRHRRDFLLRNAGDLAPAGGAASASTDEAADAESGTRNRQLQQLISFSMAWANHVFLGCRYPQKVMDKILSMAEGIKVTDAPTYTTRDELVAKVKKRGISSSNEGVEEPSKKRVIEGKNSSAVEQDHAKTSAKTERASAQQENSSTCIGSAIKSESGNSARSSGISSQNSSTSDGDRSVSSQSSSSVSSQVTTAGSGKASEAEAPDKHGSASFVSLLKSSVNSHMTQSTDSRQQSGSPKKSALEGSSASASQSSSEIEVPLLGSSGSSEVELPLLSSKPSSETASSGLTSKTSSEASVSSSVAKNSSSSGTSLLTPKSSSSTNTSLLTSKSTSQVAASLLASKSSSQTSGSLVSKSTSLASVSQLASKSSSQTSTSQLPSKSTSQSSESSVKFSCKLTNEDVKQKQPFFNRLYKTVAWKLVAVGGFSPNVNHGELLNAAIEALKATLDVFFVPLKELADLPQNKSSQESIVCELRCKSVYLGTGCGKSKENAKAVASREALKLFLKKKVVVKICKRKYRGSEIEDLVLLDEESRPVNLPPALKHPQELL

binding [2]: binds
B2: CARF (endogenously expressed) (protein, UniProt Q9NXV6 1-580)
chain: MAQEVSEYLSQNPRVAAWVEALRCDGETDKHWRHRRDFLLRNAGDLAPAGGAASASTDEAADAESGTRNRQLQQLISFSMAWANHVFLGCRYPQKVMDKILSMAEGIKVTDAPTYTTRDELVAKVKKRGISSSNEGVEEPSKKRVIEGKNSSAVEQDHAKTSAKTERASAQQENSSTCIGSAIKSESGNSARSSGISSQNSSTSDGDRSVSSQSSSSVSSQVTTAGSGKASEAEAPDKHGSASFVSLLKSSVNSHMTQSTDSRQQSGSPKKSALEGSSASASQSSSEIEVPLLGSSGSSEVELPLLSSKPSSETASSGLTSKTSSEASVSSSVAKNSSSSGTSLLTPKSSSSTNTSLLTSKSTSQVAASLLASKSSSQTSGSLVSKSTSLASVSQLASKSSSQTSTSQLPSKSTSQSSESSVKFSCKLTNEDVKQKQPFFNRLYKTVAWKLVAVGGFSPNVNHGELLNAAIEALKATLDVFFVPLKELADLPQNKSSQESIVCELRCKSVYLGTGCGKSKENAKAVASREALKLFLKKKVVVKICKRKYRGSEIEDLVLLDEESRPVNLPPALKHPQELL
